These are yes or no findings as the source states them, for the method shown. For part of these data: Binding can be weak; no strength is given. For part of these data: Binding seen in cells or lysates may run through a third protein. For part of these data: Sequences can lack the tags named with a protein.
Experiments:
[1] = target: MjTTL5 truncated derivative Del7 (amino acids 63-110) (Meloidogyne javanica); assay: two-hybrid; α-galactosidase (x-α-gal) quantitative assay of yeast cotransformants; five independent colonies
[2] = target: MjTTL5 (transthyretin-like protein 5 of Meloidogyne javanica), bait in pGBKT7 (Meloidogyne javanica); assay: as above
[3] = target: MjTTL4 (Meloidogyne javanica), bait in pGBK (Meloidogyne javanica); assay: two-hybrid; bait (pGBKT7) and prey (pGADT7) cotransformed into S. cerevisiae AH109; growth and blue colour on SD/-leu-trp-his-ade + x-α-gal agar medium
[4] = target: CeTTL (transthyretin-like protein of Caenorhabditis elegans), bait in pGBK (Caenorhabditis elegans); assay: as above
[5] = target: MiTTL5 (TTL5 of Meloidogyne incognita), bait in pGBK (Meloidogyne incognita); assay: as above
[6] = target: RsTTL5 (TTL5 of Radopholus similis), bait in pGBK (Radopholus similis); assay: as above
[7] = target: RsTTL1 (Radopholus similis), bait in pGBK (Radopholus similis); assay: as above
[8] = target: MjTTL1 (Meloidogyne javanica), bait in pGBK (Meloidogyne javanica); assay: as above
[9] = target: RsTTL4 (Radopholus similis), bait in pGBK (Radopholus similis); assay: as above
[10] = target: RsTTL2 (Radopholus similis), bait in pGBK (Radopholus similis); assay: as above
[11] = target: MjTTL2 (Meloidogyne javanica), bait in pGBK (Meloidogyne javanica); assay: as above
[12] = target: MjTTL3 (Meloidogyne javanica), bait in pGBK (Meloidogyne javanica); assay: as above
[13] = target: MjTTL5 (transthyretin-like protein 5 of Meloidogyne javanica), bait in pGBKT7 (Meloidogyne javanica); assay: as above
[14] = target: MeTTL5 (TTL5 of Meloidogyne enterolobii), bait in pGBK (Meloidogyne enterolobii); assay: as above
[15] = target: RsTTL3 (Radopholus similis), bait in pGBK (Radopholus similis); assay: as above
[16] = target: MjTTL5-cYFP-HA (pSPYCE-ttl5), expressed in tobacco leaves (Meloidogyne javanica); assay: co-IP; MjTTL5-cYFP-HA or GFP-HA coexpressed with AtFTRc-nYFP-myc in agroinfiltrated tobacco leaves; proteins extracted at 48 h; precipitate probed with anti-myc antibody
[17] = target: MjTTL5-cYFP-HA, expressed in tomato root protoplasts (Meloidogyne javanica); assay: split reporter; BiFC with nYFP and cYFP fusions cotransformed into tomato root protoplasts expressing the plastid marker AtNTRc-mCherry; images 24 h after cotransformation
[18] = target: NULG1a-cYFP-HA; assay: split reporter

B1: Arabidopsis ferredoxin : thioredoxin reductase catalytic subunit (AtFTRc), prey in pGADT7 (protein, UniProt Q9SJ89 1-146)
chain: MNLQAVSCSFGFLSSPLGVTPRTSFRRFVIRAKTEPSEKSVEIMRKFSEQYARRSGTYFCVDKGVTSVVIKGLAEHKDSYGAPLCPCRHYDDKAAEVGQGFWNCPCVPMRERKECHCMLFLTPDNDFAGKDQTITSDEIKETTANM
- binding [1]: binds
- binding [2]: binds
- binding [3]: no binding
- binding [4]: no binding
- binding [5]: binds
- binding [6]: binds
- binding [7]: no binding
- binding [8]: no binding
- binding [9]: no binding
- binding [10]: no binding
- binding [11]: no binding
- binding [12]: no binding
- binding [13]: binds
- binding [14]: binds
- binding [15]: no binding

B2: AtFTRc-nYFP-Myc (in pSPYNE), expressed in tobacco leaves (protein, UniProt Q9SJ89 32-146)
chain: AKTEPSEKSVEIMRKFSEQYARRSGTYFCVDKGVTSVVIKGLAEHKDSYGAPLCPCRHYDDKAAEVGQGFWNCPCVPMRERKECHCMLFLTPDNDFAGKDQTITSDEIKETTANM
- binding [16]: binds

B3: AtFTRc-nYFP-Myc, expressed in tomato root protoplasts (protein, UniProt Q9SJ89 32-146)
chain: B2 chain
- binding [17]: binds
- binding [18]: no binding

Source: PMC5057313
